Measured values taken from patent US20180251563A1.
Changes are numbered by the printed parent chain. Results are given in words; binding and its absence hold for the method and conditions named. Some entries that bind do so weakly or less than the wild type. Blank lines part the entries; values can stand above or below the binder they belong to.

By UniProt entry, the sequences of proteins in these tests, tags left out. Residues count along the entry.
UniProt P15391, residues 20-291: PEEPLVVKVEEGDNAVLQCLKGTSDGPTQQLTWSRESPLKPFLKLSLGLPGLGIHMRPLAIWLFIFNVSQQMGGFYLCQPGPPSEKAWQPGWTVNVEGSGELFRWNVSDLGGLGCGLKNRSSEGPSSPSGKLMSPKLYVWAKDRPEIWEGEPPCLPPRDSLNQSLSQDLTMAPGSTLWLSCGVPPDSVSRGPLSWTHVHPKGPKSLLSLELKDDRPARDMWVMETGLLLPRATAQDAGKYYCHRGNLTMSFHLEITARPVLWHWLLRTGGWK
UniProt P20273, residues 20-687: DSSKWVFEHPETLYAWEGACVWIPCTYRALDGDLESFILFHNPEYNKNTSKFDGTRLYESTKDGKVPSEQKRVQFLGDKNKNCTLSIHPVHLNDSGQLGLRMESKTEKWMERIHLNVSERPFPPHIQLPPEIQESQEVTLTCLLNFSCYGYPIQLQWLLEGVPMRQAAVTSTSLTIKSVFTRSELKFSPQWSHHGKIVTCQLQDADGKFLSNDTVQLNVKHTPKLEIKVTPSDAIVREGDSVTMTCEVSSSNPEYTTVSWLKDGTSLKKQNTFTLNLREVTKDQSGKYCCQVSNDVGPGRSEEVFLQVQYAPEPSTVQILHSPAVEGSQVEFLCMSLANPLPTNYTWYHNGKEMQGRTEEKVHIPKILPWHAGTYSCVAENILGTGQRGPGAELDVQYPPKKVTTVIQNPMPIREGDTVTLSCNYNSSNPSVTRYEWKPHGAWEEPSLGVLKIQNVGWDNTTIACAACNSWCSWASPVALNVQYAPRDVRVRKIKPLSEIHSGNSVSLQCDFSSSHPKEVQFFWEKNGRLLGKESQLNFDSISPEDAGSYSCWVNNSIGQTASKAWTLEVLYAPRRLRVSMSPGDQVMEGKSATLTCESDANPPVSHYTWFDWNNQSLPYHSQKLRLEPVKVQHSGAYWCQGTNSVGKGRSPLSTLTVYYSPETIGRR
UniProt O14763, residues 56-182: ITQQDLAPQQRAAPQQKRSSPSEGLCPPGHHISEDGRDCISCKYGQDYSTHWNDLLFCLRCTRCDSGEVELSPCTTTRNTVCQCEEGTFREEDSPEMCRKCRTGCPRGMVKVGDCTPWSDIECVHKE

Columns and labels:
Test in all cases: library selection; assay not described
CD19 = CD19 (UniProt P15391)
CD22 = CD22 (UniProt P20273)
[1] = molecular target: DR5 (target of Example 24) (UniProt O14763)
[2] = molecular target: T1, CD123 (target of Example 19) (Homo sapiens (Human)) (UniProt P26951)
T1 sequence: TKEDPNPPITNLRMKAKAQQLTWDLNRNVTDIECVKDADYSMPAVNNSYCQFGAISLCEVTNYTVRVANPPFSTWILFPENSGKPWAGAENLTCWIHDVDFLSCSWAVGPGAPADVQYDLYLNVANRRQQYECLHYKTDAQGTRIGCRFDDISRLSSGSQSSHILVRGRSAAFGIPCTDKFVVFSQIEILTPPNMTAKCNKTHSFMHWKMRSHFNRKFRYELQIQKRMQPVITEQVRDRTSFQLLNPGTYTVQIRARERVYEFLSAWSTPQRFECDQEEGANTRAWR

binding (CD19): binds
B1: SEQ ID NO 140 (designed binder)
chain: MGSWAEFYHRLYAIETRLSALGGSEAELAAFEKEIAAFESELQAYKGKGNPEVEYLRHWAAWIRTYLQAYRHN

binding (CD19): binds
B2: SEQ ID NO 147 (designed binder)
chain: B1 chain with A5E, Y12D, T16L, S19Y, H58W, W59Y, W62E, T65E, Y66I

binding (CD19): binds
B3: SEQ ID NO 146 (designed binder)
chain: B1 chain with A5W, Y8E, H9A, T16F, H58S, W62Y, Y66S

binding (CD19): binds
B4: SEQ ID NO 144 (designed binder)
chain: B1 chain with A5W, Y8E, H9A, T16F, H58S, W62Y, Y66S

binding (CD19): binds
B5: SEQ ID NO 142 (designed binder)
chain: B1 chain with A5W, Y8E, H9G, T16E, S19T, H58E, T65Q, Y66M

binding (CD19): binds
B6: SEQ ID NO 145 (designed binder)
chain: B1 chain with A5W, Y8E, H9A, Y12W, T16S, S19K, W62Y, T65V, Y66I

binding (CD19): binds
B7: SEQ ID NO 143 (designed binder)
chain: B1 chain with A5W, Y8E, T16E, S19V, H58N, W62Y, T65M, Y66A

binding (CD19): binds
B8: SEQ ID NO 151 (designed binder)
chain: MGSWYEFWERLDAITFRLYALGGSEAELAAFEKEIAAFESELQAYKGKGNPEVEDLRTWAADIRAILQAYRHN

binding (CD19): binds
B9: SEQ ID NO 154 (designed binder)
chain: B8 chain with Y5I, W8E, E9H, D12S, T15N, F16D, T58E, A65S, I66L

binding (CD22): binds
B10: SEQ ID NO 170 (designed binder)
chain: MGSWSEFYDRLHAIHHRLYALGGSEAELAAFEKEIAAFESELQAYKGKGNPEVEALRDTAAFIRTRLQAYRHN

binding (CD22): binds
B11: SEQ ID NO 174 (designed binder)
chain: B10 chain with S5N, D9N, H16Q, A55S, D58Q, F62Y, T65D

binding (CD22): binds
B12: SEQ ID NO 175 (designed binder)
chain: B10 chain with S5N, Y8A, H16Q, A55S, D58M, T65S

binding (CD22): binds
B13: SEQ ID NO 173 (designed binder)
chain: B10 chain with S5Y, Y8A, H16Q, D58M, T65S

binding (CD19): binds
B14: SEQ ID NO 153 (designed binder)
chain: MGSWIEFEERLYAIETRLLALGGSEAELAAFEKEIAAFESELQAYKGKGNPEVEFLRVVAADIREWLQAYRHN

binding (CD19): binds
B15: SEQ ID NO 158 (designed binder)
chain: B14 chain with I5F, Y12I, T16E, L19F, F55Y, V58W, V59I, E65D, W66V

binding (CD19): binds
B16: SEQ ID NO 149 (designed binder)
chain: MGSWNEFFDRLDAILYRLDALGGSEAELAAFEKEIAAFESELQAYKGKGNPEVEYLRFVAADIRSWLQAYRHN

binding (CD19): binds
B17: SEQ ID NO 161 (designed binder)
chain: B8 chain with W8H, E9D, F16N, T58D, A65V, I66W

binding (CD22): binds
B18: SEQ ID NO 167 (designed binder)
chain: MGSWVVFKQRLAYIKDLLEALGGSEAELAYFEMSIAFFEEDLQVYKGKGNPEVEALRKEAAAIRDELQAYRHN

binding (CD19): binds
B19: SEQ ID NO 137 (designed binder)
chain: MGSWEEFELRLNAIEERLYALGGSEAELAYFEYVIADFEGNLQRYKGKGNPEVEALYFEADAIFEELVAYRHN

binding (CD22): binds
B20: SEQ ID NO 171 (designed binder)
chain: MGSWKEFHFRLHAIEHRLIALGGSEAELAAFEKEIAAFESELQAYKGKGNPEVEFLRAKAANIRTHLQAYRHN

binding (CD22): binds
B21: SEQ ID NO 172 (designed binder)
chain: B20 chain with K5F, F9G, E15Y, H16G, I19S, F55H, K59H, N62H, T65D

binding (CD22): binds
B22: SEQ ID NO 169 (designed binder)
chain: MGSWVEFYNRLWAIDHRLHALGGSEAELAAFEKEIAAFESELQAYKGKGNPEVEVLRYHAASIRVTLQAYRHN

binding (CD19): binds
B23: SEQ ID NO 164 (designed binder)
chain: MGSWEEFHDRLEAISDRLWALGGSEAELAAFEKEIAAFESELQAYKGKGNPEVEDLRDWAADIRFYLQAYRHN

binding (CD22): binds
B24: SEQ ID NO 168 (designed binder)
chain: MGSWYEFKNDLAWIKVHLEALGGSEAELAYFEFRIAHFENALQYYKGKGNPEVEALRKEAAAIRDELQAYRHN

binding (CD22): binds
B25: SEQ ID NO 176 (designed binder)
chain: MGSWTEFSYRLGAIQSRLHALGGSEAELAAFEKEIAAFESELQAYKGKGNPEVEHLRYNAAKIRHFLQAYRHN

binding (CD19): binds
B26: SEQ ID NO 141 (designed binder)
chain: MGSWVEFSDRLYAIEERLWALGGSEAELAAFEKEIAAFESELQAYKGKGNPEVEELRELAAIIRHSLQAYRHN

binding (CD19): binds
B27: SEQ ID NO 139 (designed binder)
chain: MGSWEEFDGRLFAIEQRLQALGGSEAELAAFEKEIAAFESELQAYKGKGNPEVEVLRWFAAGIRDFLQAYRHN

binding (CD19): binds
B28: SEQ ID NO 138 (designed binder)
chain: MGSWFEFNHRLWAIFERLMALGGSEAELAAFEKEIAAFESELQAYKGKGNPEVEYLRAMAAVIRYHLQAYRHN

binding [1]: binds
B29: SEQ ID NO 178 (designed binder)
chain: MGSWVEFFDRLKAIHDRLEALGGSEAELAHFEKLIAHFEHRLQNYKGKGNPEVEALEKEADAILYELAAYRHN

binding (CD19): binds
B30: SEQ ID NO 166 (designed binder)
chain: MGSWEEFEYRLMAIEVRLWALGGSEAELAAFEKEIAAFESELQAYKGKGNPEVEVLREIAADIRQILQAYRHN

binding [1]: binds
B31: SEQ ID NO 179 (designed binder)
chain: MGSWYYFKHHLAWIKMELEALGGSEAELAHFESSIASFERDLQQYKGKGNPEVEALRKEAAAIRDELQAYRHN

binding [1]: binds
B32: SEQ ID NO 180 (designed binder)
chain: MGSWVEFHIRLHAIQYRLYALGGSEAELAAFEKEIAAFESELQAYKGKGNPEVEELRHWAAFIRLQLQAYRHN

binding (CD19): binds
B33: SEQ ID NO 148 (designed binder)
chain: MGSWYEFYERLDAIDTRLWALGGSEAELAAFEKEIAAFESELQAYKGKGNPEVEFLREYAAEIRHFLQAYRHN

binding (CD19): binds
B34: SEQ ID NO 152 (designed binder)
chain: B33 chain with Y5E, E9I, D15M, T16E, F55D, E58Y, Y59A, E62D

binding (CD19): binds
B35: SEQ ID NO 162 (designed binder)
chain: B30 chain with E5Q, Y9Q, M12D, E15N, V16W, V55E, I59W, Q65I, I66F

binding (CD19): binds
B36: SEQ ID NO 163 (designed binder)
chain: B33 chain with E9S, T16S, W19Y, E58D, H65R, F66Y

binding [2]: binds
B37: SEQ ID NO 101 (designed binder)
chain: MGSWTEFDRRLDAIWDRLFALGGSEAELAAFEKEIAAFESELQAYKGKGNPEVEWLREEAADIRDYLQAYRHN

binding (CD19): binds
B38: SEQ ID NO 160 (designed binder)
chain: B37 chain with T5L, D8E, R9Y, W15L, W55D, E59V, D65M, Y66L

binding (CD19): binds
B39: SEQ ID NO 165 (designed binder)
chain: B14 chain with I5W, E8D, T16D, L19F, F55W, V58I, W66I

binding (CD19): binds
B40: SEQ ID NO 159 (designed binder)
chain: B37 chain with T5I, D8A, R9D, W15L, F19D, E59I, D65A

binding (CD19): binds
B41: SEQ ID NO 150 (designed binder)
chain: B23 chain with E5I, H8D, E12L, S15M, W59V, F65H

binding (CD19): binds
B42: SEQ ID NO 157 (designed binder)
chain: B26 chain with S8E, Y12D, E15L, E55D, I62D, H65D, S66F

binding [2]: binds
B43: SEQ ID NO 102 (designed binder)
chain: B37 chain

binding (CD19): binds
B44: SEQ ID NO 156 (designed binder)
chain: B23 chain with E5Y, H8V, D9Y, E12D, S15Y, D58Y, W59A, F65D, Y66F

binding (CD19): binds
B45: SEQ ID NO 155 (designed binder)
chain: B23 chain with E5F, H8E, D9M, E12D, S15M, D16A, D58Y, W59A, F65D

binding [1]: binds
B46: SEQ ID NO 177 (designed binder)
chain: MGSWQEFTTRLEAIYHRLRALGGSEAELANFEGFIAEFEGNLQMYKGKGNPEVEALVHEAYAIMEELHAYRHN
